PubChem BioAssay AID1159578 – Peter MacCallum Cancer Centre, 2015
Assay: 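Knock-downs that alter how fast lymphatic endothelial cells migrate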 (primary screen). Cells: human lymphatic endothelial cells. Reagent: siRNA pool against human genes, 40 nM. Duration: 48 h after transfection. Measurement: 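High-content imaging of dye-stained cells in a scratch assay measures filled wound area and nuclei per well; duplicate means given as ratio to mock and robust z-score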. Scale: migration robust z-score: higher = faster migration into the scratch; migration relative to mock: higher = more scratch area covered than mock; nuclei per well: higher = more cells in the well. Hit rule: 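Migration changed when robust z exceeds 2 or falls below -2 and mean nuclei number is at least 3300; otherwise not called changed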. Meaning of the calls: active = migration changed; inactive = no migration change, or too few cells.
Shown is one part, drawn at random, of about 18,000 reagents. About 1,030 of them (5.7%) were called active. 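Inactive calls also include pools with fewer than 3300 nuclei, whose migration was not assessed.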 The raw values are shown without normalisation. Unmarked entries are inactive.

target gene,migration robust z-score,migration class with cell-count check,migration relative to mock,"nuclei per well, duplicate mean"
VPS13A (vacuolar protein sorting 13 homolog A),0.54,migration z between -2 and 2; enough cells,1.02,5646
LRRC2 (leucine rich repeat containing 2),1.03,migration z between -2 and 2; enough cells,1.16,5126
RANGAP1 (Ran GTPase activating protein 1),1.62,migration z between -2 and 2; enough cells,1.31,5830
IGSF6 (immunoglobulin superfamily member 6),0.98,migration z between -2 and 2; enough cells,1.14,5799
CSAG1 (chondrosarcoma associated gene 1),1.08,migration z between -2 and 2; enough cells,1.17,4997
COLQ,0.74,migration z between -2 and 2; enough cells,1.08,5415
KERA (keratocan),1.36,migration z between -2 and 2; enough cells,1.23,6631
CCNB1 (cyclin B1),-1.87,under 3300 nuclei; migration not judged,0.44,2888
SULT1E1 (sulfotransferase family 1E member 1),1.14,migration z between -2 and 2; enough cells,1.02,5053
MPDU1 (mannose-P-dolichol utilization defect 1),-0.26,migration z between -2 and 2; enough cells,0.82,5006
ZNF684 (zinc finger protein 684),-2.15 (active),migration z below -2; enough cells,0.33,4928
STRIP1 (striatin interacting protein 1),0.78,migration z between -2 and 2; enough cells,1.09,6524
"FNTB (farnesyltransferase, CAAX box, subunit beta)",-0.16,migration z between -2 and 2; enough cells,0.78,6222
CAVIN1 (caveolae associated protein 1),-0.67,migration z between -2 and 2; enough cells,0.71,5958
VDAC1 (voltage dependent anion channel 1),0.57,migration z between -2 and 2; enough cells,0.92,5640
BAMBI (BMP and activin membrane bound inhibitor),-1.72,under 3300 nuclei; migration not judged,0.44,2411
KRTAP6-1 (keratin associated protein 6-1),0.12,migration z between -2 and 2; enough cells,0.92,4709
GRIN2D (glutamate ionotropic receptor NMDA type subunit 2D),-0.16,migration z between -2 and 2; enough cells,0.77,5494
H2AC20 (H2A clustered histone 20),0.7,migration z between -2 and 2; enough cells,1.06,6278
"SEC22C (SEC22 homolog C, vesicle trafficking protein)",-2.12 (active),migration z below -2; enough cells,0.34,5249
UTF1 (undifferentiated embryonic cell transcription factor 1),-0.96,migration z between -2 and 2; enough cells,0.62,6135
ANKMY2 (ankyrin repeat and MYND domain containing 2),0.66,migration z between -2 and 2; enough cells,1.06,6593
FAM90A1 (family with sequence similarity 90 member A1),-1.59,migration z between -2 and 2; enough cells,0.48,5138
VWA5A (von Willebrand factor A domain containing 5A),0.08,migration z between -2 and 2; enough cells,0.91,4867
EZH1 (enhancer of zeste 1 polycomb repressive complex 2 subunit),0.96,migration z between -2 and 2; enough cells,0.99,5656
MRPS14 (mitochondrial ribosomal protein S14),-1.96,migration z between -2 and 2; enough cells,0.38,5724
TRIM64B (tripartite motif containing 64B),-1.69,migration z between -2 and 2; enough cells,0.48,4444
MAGEA2 (MAGE family member A2),-0.09,migration z between -2 and 2; enough cells,0.86,5059
S1PR1 (sphingosine-1-phosphate receptor 1),-2.36 (active),migration z below -2; enough cells,0.35,5290
IER2 (immediate early response 2),-0.92,migration z between -2 and 2; enough cells,0.65,6066
ANKRD24 (ankyrin repeat domain 24),-0.3,migration z between -2 and 2; enough cells,0.8,5884
COL8A1 (collagen type VIII alpha 1 chain),1.68,migration z between -2 and 2; enough cells,1.32,5900
DAZL (deleted in azoospermia like),1.5,migration z between -2 and 2; enough cells,1.1,5387
MOV10 (Mov10 RNA helicase),-0.36,migration z between -2 and 2; enough cells,0.74,4004
SLC35B4,-2.12 (active),migration z below -2; enough cells,0.34,5096
PPIB (peptidylprolyl isomerase B),0.08,migration z between -2 and 2; enough cells,0.82,4561
CHD7 (chromodomain helicase DNA binding protein 7),1.32,migration z between -2 and 2; enough cells,1.06,5656
ZNF347 (zinc finger protein 347),-0.32,migration z between -2 and 2; enough cells,0.8,4328
RAX2 (retina and anterior neural fold homeobox 2),0.76,migration z between -2 and 2; enough cells,1.08,4895
SRARP (steroid receptor associated and regulated protein),0.95,migration z between -2 and 2; enough cells,1.12,6276
SEC14L4 (SEC14 like lipid binding 4),2.8 (active),migration z above 2; enough cells,1.62,5155
GJA4 (gap junction protein alpha 4),-1.53,migration z between -2 and 2; enough cells,0.51,5522
PNLDC1 (PARN like ribonuclease domain containing exonuclease 1),0.9,migration z between -2 and 2; enough cells,1.13,5921
IRF2BPL (interferon regulatory factor 2 binding protein like),1.07,migration z between -2 and 2; enough cells,1.17,4812
SPINK6 (serine peptidase inhibitor Kazal type 6),-0.72,migration z between -2 and 2; enough cells,0.7,5704
PCMTD2,1.77,migration z between -2 and 2; enough cells,1.15,6066
TAL2 (TAL bHLH transcription factor 2),-0.8,migration z between -2 and 2; enough cells,0.68,5764
FKBP1B (FKBP prolyl isomerase 1B),-0.02,migration z between -2 and 2; enough cells,0.8,5456
ORC4 (origin recognition complex subunit 4),0.26,migration z between -2 and 2; enough cells,0.95,7120
SLC35G1,-0.8,migration z between -2 and 2; enough cells,0.68,6376
TUBB4B (tubulin beta 4B class IVb),1,migration z between -2 and 2; enough cells,1.15,3616
PLCL1 (phospholipase C like 1 (inactive)),2.08 (active),migration z above 2; enough cells,1.21,6324
ARPP19 (cAMP regulated phosphoprotein 19),0.02,migration z between -2 and 2; enough cells,0.81,5472
MRGPRX3 (MAS related GPR family member X3),0.65,migration z between -2 and 2; enough cells,0.93,7182
MAEL (maelstrom spermatogenic transposon silencer),-0.67,migration z between -2 and 2; enough cells,0.71,3880
TRMT6 (tRNA methyltransferase 6 non-catalytic subunit),-0.48,migration z between -2 and 2; enough cells,0.76,6472
USP21 (ubiquitin specific peptidase 21),-0.99,migration z between -2 and 2; enough cells,0.62,5539
SARNP (SAP domain containing ribonucleoprotein),0.02,migration z between -2 and 2; enough cells,0.89,5560
SPAG1 (sperm associated antigen 1),-1.64,migration z between -2 and 2; enough cells,0.46,4264
EPHB6 (EPH receptor B6),-0.39,migration z between -2 and 2; enough cells,0.73,3880
SUOX (sulfite oxidase),-1.6,migration z between -2 and 2; enough cells,0.5,4600
SPATS2L (spermatogenesis associated serine rich 2 like),-3.15 (active),migration z below -2; enough cells,0.07,6402
ADRA2C (adrenoceptor alpha 2C),-0.7,migration z between -2 and 2; enough cells,0.67,5409
CPT1A (carnitine palmitoyltransferase 1A),0.05,migration z between -2 and 2; enough cells,0.82,4838
REPIN1 (replication initiator 1),-0.73,migration z between -2 and 2; enough cells,0.7,5231
FFAR2 (free fatty acid receptor 2),0.86,migration z between -2 and 2; enough cells,0.97,5270
SCMH1 (Scm polycomb group protein homolog 1),0.86,migration z between -2 and 2; enough cells,0.97,4392
DPT (dermatopontin),-1.36,migration z between -2 and 2; enough cells,0.53,6701
TCIRG1,-0.24,migration z between -2 and 2; enough cells,0.76,5880
LIN7B (lin-7 cell polarity scaffold B),0.4,migration z between -2 and 2; enough cells,0.99,5598
LYAR (Ly1 antibody reactive),-0.6,migration z between -2 and 2; enough cells,0.73,3908
BCKDHA (branched chain keto acid dehydrogenase E1 subunit alpha),-1.79,migration z between -2 and 2; enough cells,0.46,4785
SEPTIN3 (septin 3),-0.7,migration z between -2 and 2; enough cells,0.67,4732
